Results from PubChem BioAssay AID1347076 (National Center for Advancing Translational Sciences (NCATS), 2019).
About 13,000 (3.2%) of roughly 400,000 compounds were called active. The inconclusive results got no clear call from the source; some entries with a clear call stand among them for comparison. Calls follow the shape of the dose curve; as a rule, active = well fitted cell-killing curve with a large enough effect; inconclusive = small, poorly fitted or top-dose-only effect, or effect the other way; inactive = flat fitted curve, though single readings scatter. Potencies of inconclusive entries are doubtful fits and often do not repeat.

Test: qHTS assay for MDR1-selective chemotherapeutics: Primary screen using the drug-selected MDR subline cells KB-V1; also: nearly all actives have a fitted effect of over 60% in size
Conditions: KB-V1 MDR cells viability, CellTiter-Glo, 72 h; series mostly up to 46.1 µM
Procedure, shortened: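 Following 72 h at 37 degrees C with compound, KB-V1 cell viability was read by CellTiter-Glo luminescence, medium being phenol-red-free DMEM plus 10% FBS; concentration-response parameters came from normalized, curve-fitted qHTS data.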
Potency is read from the fitted curve at half-maximal effect.

| Compound | Potency |
| --- | --- |
| Cc1ccc2sc(N3CCN(C(=O)c4ccc([N+](=O)[O-])o4)CC3)nc2c1C | inactive |
| N#Cc1cnc2ncnn2c1-c1ccccc1 | inconclusive: 29.1 µM [rising, single point] |
| CCOC(=O)C(C)/C(C)=N/NC(=O)CCC(=O)Nc1cc(C)ccc1C (centres undefined) | inactive |
| COc1ccc(C(CNC(=O)c2ccc(S(=O)(=O)N3CCCC3)cc2)N(C)C)cc1OC (centres undefined) | inactive |
| NC(c1csc(NC(=O)Nc2cccc(C(F)(F)F)c2)n1)C1CCCCC1 (centres undefined) | inconclusive: 18.4 µM [cytotoxic, single point] |
| Cc1cc(=O)oc2cc(OCC(O)CN3CCN(c4ccccc4)CC3)ccc12 (centres undefined) | inconclusive: 1.3 µM [cytotoxic, full curve] |
| Cc1ccc(C(=O)NCc2ccccn2)cc1S(=O)(=O)N1CCCCC1 | inconclusive: 29.1 µM [cytotoxic, single point] |
| O=C1CC2(CCN(C(=O)COc3ccc(Cl)cc3)CC2)Oc2ccccc21 | inactive |
| COc1ccc(-c2cc(C(=O)N3CCN(c4ccccc4O)CC3)c3ccccc3n2)cc1OC | inconclusive: 23.1 µM [cytotoxic, single point] |
| CC(=O)/C=C1\OCc2cc(OCc3ccccc3)ccc21 | inconclusive: 25.9 µM [cytotoxic, single point] |
| Cc1cccc(Cn2c(SCc3ccc(C(=O)NCc4cccs4)cc3)nc3cccnc32)c1 | inconclusive: 0.731 µM [cytotoxic, full curve] |
| COc1cccc(CNC(=O)CCC2CCCN(C(=O)c3cccc4c(C)c(C)[nH]c34)C2)c1 (centres undefined) | inconclusive: 9.2 µM [cytotoxic, partial curve] |
| Cc1ccc(C)c2[nH]c(=O)c(CN(CCN3CCOCC3)Cc3nnnn3CC3CCCO3)cc12 (centres undefined) | inactive |
| O=S(=O)(c1ccccc1)N1CCC(O)(CSc2ccccc2)CC1 | inactive |
| C[C@@H]1CCCCO[C@@H](CN(C)Cc2ccncc2)[C@@H](C)CN([C@H](C)CO)C(=O)c2cc(NC(=O)c3ccccc3)ccc2O1 | inactive |
| Cc1ccccc1/C=C1\Sc2ccc(C(=O)N3CCN(c4ccccn4)CC3)cc2N(C)C1=O | inconclusive: 29.1 µM [rising, partial curve, poor fit] |
| Cc1onc(-c2ccccc2)c1-c1nnc(CN2CCN(S(=O)(=O)c3ccccc3F)CC2)o1 | active: 3.26 µM |
| CCOP(=O)(OCC)c1nc(-c2cccc3ccccc23)oc1N1CCOCC1 | inconclusive: 16.4 µM [cytotoxic, single point] |
| CCN(CC)CCCNC(=O)C(C)n1nc(C)n2c(cc3occc32)c1=O (centres undefined) | inactive |
| COC(=O)c1cc(C)nc2c1c(=O)nc(SCc1cccc(C(F)(F)F)c1)n2C1CC1 | inactive |
| CC(=O)Oc1ccc(C2=Cc3ccc(OC(C)=O)cc3OC2C)cc1 (centres undefined) | inconclusive: 29.1 µM [cytotoxic, single point] |
| CCCCn1nc(C(=O)NNC(=O)c2ccncc2)c2ccccc2c1=O | inconclusive: 18.4 µM [cytotoxic, single point] |

Compounds above that have a furan ring, fused or not, in the order listed:

| Compound | Potency |
| --- | --- |
| Cc1ccc2sc(N3CCN(C(=O)c4ccc([N+](=O)[O-])o4)CC3)nc2c1C | inactive |
| CCN(CC)CCCNC(=O)C(C)n1nc(C)n2c(cc3occc32)c1=O (centres undefined) | inactive |

The results go on:

| Compound | Potency |
| --- | --- |
| Cc1cnc(CN2CCc3c([nH]c4ccccc34)C2C2CCCCC2)[nH]1 (centres undefined) | inactive |
| CC(=O)Nc1nonc1NC(=O)c1ccc(C(C)(C)C)cc1 | inconclusive: 18.4 µM [cytotoxic, single point] |
| CC(C)c1ccc(NC(=O)c2cc(S(=O)(=O)NC3CCCCC3)ccc2F)cc1 | inconclusive: 23.1 µM [cytotoxic, single point] |
| Cc1cc(NC(=O)C(C)SCC(=O)OC(C)C(=O)Nc2ccc(F)cc2Cl)no1 (centres undefined) | inactive |
| COC(=O)c1ccccc1NC(=O)CN(c1ccc(Cl)cc1)S(=O)(=O)c1ccc(OC)cc1 | inactive |
| Cc1ccc(SCC(=O)Nc2nnc(-c3ccco3)o2)cc1 | inactive |
| CN(C)c1ccc(CNc2ncnc3sccc23)cc1 | inconclusive: 1.3 µM [cytotoxic, full curve] |
| CCOC(=O)[C@]12CCC=C1N(Cc1cccc3ccccc13)C(=O)[C@H](CC(=O)N1CCCCC1)C2 | inconclusive: 9.2 µM [cytotoxic, partial curve] |
| COc1ccc(NC(C)=O)cc1NC(=O)CSc1nnc(C2CCCCC2)n1N | inconclusive: 29.1 µM [rising, single point] |
| Cc1ccsc1/C=C1\SC(N2CC(C)OC(C)C2)=NC1=O (centres undefined) | active: 18.4 µM |
| CC1(C)CC(=O)c2cc(C(=O)NCc3ccccc3)c(=O)[nH]c2C1 | inactive |
| O=C(NC1CCC(O)CC1)c1cc(-c2ccco2)nc2ccccc12 (centres undefined) | inconclusive: 6.51 µM [rising, partial curve] |
| O=C1NC[C@H](CCCCN2C[C@H](Cc3ccc(O)cc3)N(CCC3CCCCC3)C(=O)C2=O)N(CC2CCCCC2)C1=O | inconclusive: 29.1 µM [rising, single point] |
| Cc1cc(NC(=O)Nc2ccccc2Cl)no1 | inconclusive: 10.3 µM [rising, partial curve, poor fit] |
| O=C(OCc1ccco1)c1ccc2c(c1)N(Cc1ccc([N+](=O)[O-])cc1)C(=O)c1ccccc1S2 | inconclusive: 5.8 µM [cytotoxic, partial curve] |
| COC(=O)CSc1nc(-c2ccccc2)nc2ccccc12 | inconclusive: 23.1 µM [rising, single point] |
| CCN(CC)C(=O)COC(=O)c1cc(-c2ccc(OC)cc2)nc2ccccc12 | inconclusive: 29.1 µM [cytotoxic, single point] |
| CC(C)CC(=O)Nc1c2c(nn1-c1cccc(Cl)c1)CS(=O)(=O)C2 | inactive |
| CCC(=O)Nc1cccc(NC(=S)NC(=O)c2ccc(C)cc2)c1 | inconclusive: 25.9 µM [cytotoxic, single point] |
| CC(=O)Nc1ccc(N(C(=O)CNC(=O)c2ccco2)C(C(=O)NCC2CCCO2)c2ccccc2)cc1 (centres undefined) | inconclusive: 11.6 µM [rising, partial curve, poor fit] |
| Cn1c(CC2C(=O)Nc3ccc(Br)cc32)nc2ccccc2c1=O (centres undefined) | active: 10.3 µM |
| OCCC1CN(Cc2ccccc2O)CCN1CCc1ccccc1 (centres undefined) | inconclusive: 13 µM [cytotoxic, partial curve, poor fit] |
